Reference: patent publication US20240132883A1, “RNA-TRIGGERED PROTEIN CLEAVAGE AND APPLICATIONS BY THE CRISPR CAS7-11-CSX29 COMPLEX” (Massachusetts Institute of Technology, published 2024)
No constants are given. Whether binding was seen depends on the method and setting. Some results given as binding are weak or reduced against the parent protein; the word gives no strength. Where a sequence is shown, tags or fusion partners need not be part of it.

Columns and labels:
[1] = molecular target: catalytically inactive D. ishimotonii Cas7-11 mutant (D429A/D654A), expressed as MBP-Cas7-11-His6 (Desulfonema ishimotonii); assay: cryo-EM structure of Cas7-11-crRNA-Csx29
[2] = molecular target: catalytically inactive D. ishimotonii Cas7-11 mutant (D429A/D654A), expressed as MBP-Cas7-11-His6 (Desulfonema ishimotonii); assay: cryo-EM structures of Cas7-11-crRNA-Csx29 with and without target RNA

binding [1]: binds | binding [2]: binds
B1: D. ishimotonii Csx29, expressed as His6-Twin-Strep-SUMO-Csx29 (enzyme, not shown: large carriers)
chain: HHHHHHMSNPIRDIQDRLKTAKFDNKDDMMNLASSLYKYEKQLMDSSEATLCQQGLSNRPNSFSQLSQFRDSDIQSKAGGQTGKFWQNEYEACKNFQTHKERRETLEQIIRFLQNGAEEKDADDLLLKTLARAYFHRGLLYRPKGFSVPARKVEAMKKAIAYCEIILDKNEEESEALRIWLYAAMELRRCGEEYPENFAEKLFYLANDGFISELYDIRLFLEYTEREEDNNFLDMILQENQDRERLFELCLYKARACFHLNQLNDVRIYGESAIDNAPGAFADPFWDELVEFIRMLRNKKSELWKEIAIKAWDKCREKEMKVGNNIYLSWYWARQRELYDLAFMAQDGIEKKTRIADSLKSRTTLRIQELNELRKDAHRKQNRRLEDKLDRIIEQENEARDGAYLRRNPPCFTGGKREEIPFARLPQNWIAVHFYLNELESHEGGKGGHALIYDPQKAEKDQWQDKSFDYKELHRKFLEWQENYILNEEGSADFLVTLCREIEKAMPFLFKSEVIPEDRPVLWIPHGFLHRLPLHAAMKSGNNSNIEIFWERHASRYLPAWHLFDPAPYSREESSTLLKNFEEYDFQNLENGEIEVYAPSSPKKVKEAIRENPAILLLLCHGEADMTNPFRSCLKLKNKDMTIFDLLTVEDVRLSGSRILLGACESDMVPPLEFSVDEHLSVSGAFLSHKAGEIVAGLWTVDSEKVDECYSYLVEEKDFLRNLQEWQMAETENFRSENDSSLFYKIAPFRIIGFPAE
